The results in this text go back to PMC9741652, “CRL2^ZER1/ZYG11B recognizes small N-terminal residues for degradation” (Nature Communications, 2022).

Protein sequences, listed by entry. Tags and fused reporters are not part of them. Lines headed by an entry give the natural chain unless they say otherwise; changes in a name come on top.
UniProt Q7Z7L7: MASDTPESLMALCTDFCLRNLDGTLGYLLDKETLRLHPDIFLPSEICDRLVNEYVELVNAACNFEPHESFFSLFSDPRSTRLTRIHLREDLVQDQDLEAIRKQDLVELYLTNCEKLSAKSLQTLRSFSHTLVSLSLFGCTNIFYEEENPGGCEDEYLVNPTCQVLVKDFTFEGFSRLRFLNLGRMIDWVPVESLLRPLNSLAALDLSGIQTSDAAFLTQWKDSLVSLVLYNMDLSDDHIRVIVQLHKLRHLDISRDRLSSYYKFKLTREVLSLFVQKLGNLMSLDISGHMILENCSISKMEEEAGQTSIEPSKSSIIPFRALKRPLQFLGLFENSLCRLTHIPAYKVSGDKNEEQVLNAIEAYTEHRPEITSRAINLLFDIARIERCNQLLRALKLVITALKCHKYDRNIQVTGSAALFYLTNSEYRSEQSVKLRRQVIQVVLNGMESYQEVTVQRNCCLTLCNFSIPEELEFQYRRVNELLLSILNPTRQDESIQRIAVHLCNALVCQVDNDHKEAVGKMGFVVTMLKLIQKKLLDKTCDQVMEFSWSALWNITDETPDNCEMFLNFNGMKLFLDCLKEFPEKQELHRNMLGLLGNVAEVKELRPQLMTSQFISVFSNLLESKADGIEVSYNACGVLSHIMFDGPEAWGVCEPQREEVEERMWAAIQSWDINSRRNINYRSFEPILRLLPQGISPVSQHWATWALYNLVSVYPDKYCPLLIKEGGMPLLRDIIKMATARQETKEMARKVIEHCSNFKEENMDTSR
UniProt Q9C0D3: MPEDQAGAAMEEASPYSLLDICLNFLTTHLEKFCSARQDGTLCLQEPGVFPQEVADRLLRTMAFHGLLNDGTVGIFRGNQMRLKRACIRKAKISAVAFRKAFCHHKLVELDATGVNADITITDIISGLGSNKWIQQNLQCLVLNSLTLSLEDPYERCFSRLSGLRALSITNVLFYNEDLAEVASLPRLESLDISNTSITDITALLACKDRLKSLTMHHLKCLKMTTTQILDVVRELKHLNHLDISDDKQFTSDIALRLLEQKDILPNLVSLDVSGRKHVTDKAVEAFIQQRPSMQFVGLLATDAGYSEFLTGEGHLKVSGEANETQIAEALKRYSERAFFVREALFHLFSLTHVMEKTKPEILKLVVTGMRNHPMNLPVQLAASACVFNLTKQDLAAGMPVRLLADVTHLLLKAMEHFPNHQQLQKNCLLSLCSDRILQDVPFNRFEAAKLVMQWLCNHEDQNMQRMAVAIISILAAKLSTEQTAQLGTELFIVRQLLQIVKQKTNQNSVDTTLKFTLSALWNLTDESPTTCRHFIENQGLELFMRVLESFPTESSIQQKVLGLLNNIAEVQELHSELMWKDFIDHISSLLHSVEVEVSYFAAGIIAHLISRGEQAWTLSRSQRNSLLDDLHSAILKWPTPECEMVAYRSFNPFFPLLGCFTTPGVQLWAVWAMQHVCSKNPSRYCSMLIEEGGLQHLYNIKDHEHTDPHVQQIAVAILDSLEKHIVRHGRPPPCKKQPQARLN

Results are given in words; binding and its absence hold for the method and conditions named. For some of these results: A result given as binding can be weak or reduced; the word gives no strength.

B1: TFLHVGQD peptide (peptide)
peptide: TFLHVGQD
B2: AFLHVGQD peptide (peptide)
peptide: AFLHVGQD
B3: SFLHVGQD peptide (peptide)
peptide: SFLHVGQD
B4: CFLHVGQD peptide (peptide)
peptide: CFLHVGQD
B5: free H2A peptide (sequence: …) (peptide)
peptide: SGRGKQGGKA
B6: YFLHVGQD peptide (peptide)
peptide: YFLHVGQD
B7: PFLHVGQD peptide (peptide)
peptide: PFLHVGQD
B8: IFLHVGQD peptide (peptide)
peptide: IFLHVGQD
B9: WFLHVGQD peptide (peptide)
peptide: WFLHVGQD
B10: LFLHVGQD peptide (peptide)
peptide: LFLHVGQD
B11: EFLHVGQD peptide (peptide)
peptide: EFLHVGQD
B12: MFLHVGQD peptide (peptide)
peptide: MFLHVGQD
B13: KFLHVGQD peptide (peptide)
peptide: KFLHVGQD
B14: DFLHVGQD peptide (peptide)
peptide: DFLHVGQD
B15: RFLHVGQD peptide (peptide)
peptide: RFLHVGQD
B16: FFLHVGQD peptide (peptide)
peptide: FFLHVGQD
B17: VFLHVGQD peptide (peptide)
peptide: VFLHVGQD
B18: NFLHVGQD peptide (peptide)
peptide: NFLHVGQD
B19: QFLHVGQD peptide (peptide)
peptide: QFLHVGQD
B20: HFLHVGQD peptide (peptide)
peptide: HFLHVGQD

The target of the first experiment is ZER1 (residues 469–766) N553A (human) (UniProt Q7Z7L7). The experiment can be described thus: ITC; peptide (0.5–1.5 mM) titrated into protein (50–70 μM) in the cell; 20 mM Tris-HCl pH 7.5, 150 mM NaCl; 16 °C; both purified. A general note: Isothermal titration calorimetry measures the heat released or taken up as one component is titrated into another.
For B1, the binding result is on record as “binds”.
Still for that read-out and setting: the same measure for B2: “binds”; for B3: “binds”.
Same read-out and setting: the same measure for B4: “binds”.

A further experiment concerns the target ZER1 (residues 469–766) (human) (UniProt Q7Z7L7). Described as above.
With B5, the binding entry is “binds”.

The target of another experiment is ZER1 (residues 469–766) D556A (human) (UniProt Q7Z7L7). The experiment can be described thus: condition: peptide 0.5–1.5 mM titrated into 50–70 μM protein; ITC; peptide (0.5–1.5 mM) titrated into protein (50–70 μM) in the cell; 20 mM Tris-HCl pH 7.5, 150 mM NaCl; 16 °C; both purified.
Take B1: the binding entry is “no binding”.
With B2, the binding result is “no binding”.
For the molecule B3, the binding entry is given as “no binding”.
The same measure, in the same setting: for B4 the value was “no binding”.

For the next experiment, the target named is ZER1 (residues 469–766) E600A (human) (UniProt Q7Z7L7). The description is as above.
Regarding B1, the binding entry is “no binding”.
Same read-out and setting: the same measure for B2: “no binding”; for B3: “no binding”.
On the same count and under the same terms, the same measure for B4: “no binding”.

In another experiment the target is ZER1 (residues 469–766) (human) (UniProt Q7Z7L7). Described as above.
On to B6, for which the binding result is listed as “no binding”.
On the same count and under the same terms, for B7 the value was “no binding”; for B8, “no binding”.
With B9, the binding entry was “no binding”.
Same read-out and setting: for B10 the value was “no binding”; for B11, “no binding”.
As for B12, the binding entry is on record as “no binding”.
The same measure, in the same setting: for B13 the value was “no binding”.
Still for that read-out and setting: for B14 the value was “no binding”; for B15, “no binding”.
Turning to B16, the binding entry is given as “no binding”.
Still for that read-out and setting: for B17 the value was “no binding”; for B18, “no binding”.
The same measure, in the same setting: the same measure for B19: “no binding”; for B20: “no binding”.

The target in another experiment is ZYG11B (residues 490–728) (UniProt Q9C0D3). The experiment is described as above.
Regarding B6, the binding entry was “no binding”.
In the case of B7, the binding entry is on record as “no binding”.
The same measure, in the same setting: for B8 the value was “no binding”; for B9, “no binding”; for B1, “no binding”.
The same measure, in the same setting: the same measure for B10: “no binding”; for B11: “no binding”.
On the same count and under the same terms, the same measure for B12: “no binding”; for B13: “no binding”; for B14: “no binding”.
As for B15, the binding entry was “no binding”.
Take B16: the binding result was “no binding”.
Same read-out and setting: the same measure for B17: “no binding”; for B18: “no binding”; for B19: “no binding”.
The same measure, in the same setting: for B20 the value was “no binding”.

The target in a further experiment is ZER1 (residues 469–766) N597A (human) (UniProt Q7Z7L7). The description is as above.
On to B1, for which the binding entry is “no binding”.
Same read-out and setting: for B2 the value was “no binding”; for B3, “no binding”; for B4, “no binding”.

The target of a further experiment is ZER1 (residues 469–766) W552A (human) (UniProt Q7Z7L7). Described as above.
Turning to B1, the binding entry is “no binding”.
On the same count and under the same terms, for B2 the value was “no binding”; for B3, “no binding”.
On the same count and under the same terms, the same measure for B4: “no binding”.
